For at least one compound, name, drawing or mass did not settle the structure. Some of these results come from one statement about several compounds together.
How the values were obtained:
[1] = system: FL1^+ cells (glioma-initiating cells, gliomasphere cultures); assay: in vitro recurrence assay (treatment then recovery), viable FL1+ cells by FACS; assay type: cell-based, human
Source text: In contrast to other methods, which preferentially use cancer cell lines and stem cell marker like CD133 as a read-out of stemness, the Applicants' technology relies on primary cell cultures derived from human specimen and on a simple and unbiased detection of CICs independently of the use of any marker. Thus Applicants took advantage of such methodology to design and develop an in vitro recurrence assay to screen and validate potential therapeutic agents for eradicating cancer stem cells in glioma. […] The novelties here reside on the read-out of stemness used for testing the efficiency of any drug and on the possibility to identify specific anti-CSC agent.
Basically, any agent or inhibitor would be considered as an efficient anti-CSC agent if it fulfils the following criteria:
• 1) a viability of GICs (FL1^+ cells) decreases for more than 50% during the exposure to said agent or inhibitor during a maximum of 20 days, • 2) a recovery of GICs (FL1^+ cells) is less than 0.2 fold during the recovery phase of a maximum of 20 days, and • 3) the viability of normal brain cells is sustainable and recoverable during and after the exposure to the said agent or inhibitor.
a) Providing a cancer stem cell sample;
b) Treating the cancer stem cell sample provided under (a) with an agent;
c) Incubating the treated stem cell sample in a stem cell culture medium for an incubation period without treatment;
d) Selecting the viable cell population from the stem cell sample incubated under step (c); […]

primary GBM-2 cells = assay: in vivo tumorigenicity of cells pretreated in vitro with inhibitors; design: species or system mice; settings: GBM-2 cells treated 10 days in vitro prior implantation
Source text: Control mice had symptoms 4 weeks post-implantation and were sacrificed. […] Experiment was stopped 17 weeks post-implantation.

FL1^+ cells = assay: effect of DCA or oxamate treatment on FL1+ cells; assay type: cell-based, human; settings: increasing dose (48 hrs) and even after 10 days

## CCCCCC[C@H]1C(=O)O[C@H](C)[C@H](NC(=O)c2cccc(NC=O)c2O)C(=O)O[C@@H](C)[C@@H]1OC(=O)CC(C)C [Antimycin A]
[1]; 5 μM, exposure along 20 days
  killing of FL1^+ cells: kills all FL1^+ cell
[1]; FIG. 6, 5 μM
  killing of FL1^+ cell population by inhibition of mitochondrial complex: kills the FL1^+ cell population
Primary GBM-2 cells; 17 weeks post-implantation
  histological analyses for tumours: no visible tumours
Primary GBM-2 cells; up to 17 weeks post-implantation
  state of mice implanted with pretreated cells: alive without symptoms

## O=C(O)C(Cl)Cl [DCA, dichloroacetate]
FL1^+ cells
  ratio of FL1^+ cells after exposure versus vehicle control: doesn't significant vary

## CC1=C2C[C@H]3[C@@H](CC=C4C[C@@H](O)CC[C@@]43C)[C@@H]2CC[C@]12O[C@@H]1C[C@H](C)CN[C@H]1[C@H]2C [cyclopamine, Cyclopamine]
[1]; after 20 days treatment, 1 μM temsirolimus, 5 μM cyclopamine, 5 μM DAPT
  time in which FL1^+ cells recover: ≤ 10 days
